“And” between values parts separate entries of the source, which are not always exact repeats. Equal values may be shown once. The list shows a part of the results. Further columns of the screen follow, without active or inactive calls. The list favours compounds with an active or inconclusive main result. Potencies come from curve fits of mixed quality, noted in brackets.
Experiment: qHTS Assay for Modulators of Lamin A Splicing
Conditions: HeLa LMNA splicing GFP/RFP minigene ratio, 48 h
Procedure, shortened: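 S3 HeLa stable clones carrying a lamin A-EGFP splicing minigene plus DsRed2 were seeded at 600 cells/well in Opti-MEM with 2% FBS, pin-dosed and incubated 48 h at 37°C. Acumen cytometry (488 nm) gave the GFP/RFP total-intensity ratio.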

[1] = measured here: GFP splicing reporter channel
[2] = measured here: RFP viability control channel

With `CCC(=O)Nc1ccccc1Sc1ncnc2scc(-c3ccccc3)c12` the AC50 [1] was 0.112 µM [falling, full curve, poor fit] and the AC50 [2] was 12.6 µM [falling, partial curve].
With `On1nnc2c3ccccc3c3ccccc3c21` the AC50 [1] was 6.31 µM [falling, full curve, poor fit] and the AC50 [2] was 2.82 µM [falling, full curve, poor fit].
In the case of `COc1ccc(C(=O)Nc2cccnc2)cc1OC`, the AC50 [1] is reported as 10 µM [rising, partial curve, poor fit] and the AC50 [2] is reported as 11.2 µM [rising, partial curve, poor fit].
With `CN(C)C(=S)c1ccc2ccccc2n1` the AC50 [2] was 15.8 µM [falling, partial curve].
With `O=c1c(-c2ccc(O)cc2)coc2cc(O)cc(O)c12` the AC50 [1] was 35.5 µM [falling, single point] and 15.8 µM [falling, partial curve] and the AC50 [2] was 15.8 µM [rising, partial curve] and 15.8 µM [rising, single point].
For `CCCCC(=O)NC(c1ccc([N+](=O)[O-])cc1)c1c(O)ccc2ccccc12` (stereo not given), the AC50 [2] was 12.6 µM [rising, partial curve, poor fit].
With `COc1cc(NC(=O)c2ccc(C)cc2)c(OC)cc1NC(=O)CN1CCCCC1` the AC50 [2] was 11.2 µM [rising, partial curve].
With `CCOC(=O)Nc1ccc2c(c1)N(C(=O)CCN1CCOCC1)c1ccccc1S2` the AC50 [1] was 0.282 µM [falling, full curve] and the AC50 [2] was 10 µM [rising, single point].
For `CC(=O)c1ccc(NC(=O)CN2C(=O)/C(=C/C=C/c3ccccc3)SC2=S)cc1`, the AC50 [1] was 11.2 µM [rising, partial curve, poor fit] and the AC50 [2] was 14.1 µM [rising, single point].
For `CCNC(=O)NC(=O)C(C)OC(=O)C1CCN(S(=O)(=O)c2ccccc2C(=O)OC)CC1` (stereo not given), the AC50 [2] was 0.891 µM [falling, full curve, poor fit].
In the case of `CCn1cc(C(=O)Nc2ccc(C)c([N+](=O)[O-])c2)cn1`, the AC50 [1] is reported as 5.62 µM [rising, partial curve] and the AC50 [2] is reported as 8.91 µM [rising, partial curve, poor fit].
With `CCCOc1ccc(/C(O)=C2/C(=O)C(=O)N(CCOC)C2c2cccnc2)cc1` (stereo not given) the AC50 [1] was 0.0398 µM [rising, full curve, poor fit].
For `Cc1cc(Cl)cc(C)c1OCCCCn1ccnc1`, the AC50 [1] was 10 µM [rising, single point] and the AC50 [2] was 12.6 µM [rising, single point].
With `CCOc1ccc(N(CC(=O)Nc2cccc(OC)c2)S(=O)(=O)c2c(C)noc2C)cc1` the AC50 [2] was 12.6 µM [rising, partial curve].
In the case of `C=C1CCC2C(C)(C)[C@H](O)CC[C@@]2(C)[C@@H]1COc1cc(=O)oc2ccccc12` (stereo not given in full), the AC50 [2] is reported as 10 µM [rising, single point].
In the case of `CC(C)NC(=O)C1CCN(C2CCN(Cc3ccc4cccc(F)c4n3)CC2)CC1`, the AC50 [1] is reported as 0.0398 µM [rising, full curve].
For `CCOC(=O)c1sc(N)c(C#N)c1CSc1nc2ccc(OCC)cc2[nH]1`, the AC50 [1] was 12.6 µM [rising, single point] and the AC50 [2] was 5.01 µM [rising, partial curve].
With `COc1ccc(S(=O)(=O)Nc2ccc(O)c(Sc3nc4ccccc4s3)c2)cc1` the AC50 [2] was 25.1 µM [rising, single point].
With `Nc1c(O)ccc2c1C(=O)c1ccccc1C2=O` the AC50 [2] was 14.1 µM [rising, partial curve, poor fit].
In the case of `Cc1ccc(C(=O)Nc2ncc(Cc3ccccc3)s2)o1`, the AC50 [1] is reported as 31.6 µM [rising, single point] and the AC50 [2] is reported as 14.1 µM [rising, partial curve].
With `CN(C)S(=O)(=O)c1ccc(NC(=O)CN2CCC(Cc3ccccc3)CC2)cc1` the AC50 [1] was 25.1 µM [falling, single point].
In the case of `Cn1c(CNc2ccc(Cl)cc2)nc2ccccc21`, the AC50 [2] is reported as 31.6 µM [rising, single point].
With `O=C(COc1ncnc2scc(-c3ccccc3)c12)NC1CCCc2ccccc21` (stereo not given) the AC50 [1] was 14.1 µM [rising, partial curve] and the AC50 [2] was 12.6 µM [rising, single point].
In the case of `COc1cccc2[nH]c3c(N4CCN(Cc5ccc6c(c5)OCO6)CC4)ncnc3c12`, the AC50 [2] is reported as 22.4 µM [rising, single point].
In the case of `O=C(Nc1nc(-c2cccs2)c(C(=O)C(F)(F)F)s1)c1ccccc1`, the AC50 [1] is reported as 28.2 µM [rising, single point] and the AC50 [2] is reported as 12.6 µM [rising, partial curve, poor fit].
For `COc1ccc(NC(=O)/C=C/c2ccco2)cn1`, the AC50 [1] was 0.316 µM [falling, full curve, poor fit].
For `Cc1cccc(N2Cc3ccccc3C2=NC(=O)c2ccc(Cl)nc2)c1`, the AC50 [2] was 0.316 µM [rising, partial curve].
For `CC(=O)NC1=C(NC2CCS(=O)(=O)C2)C(=O)c2ccccc2C1=O` (stereo not given), the AC50 [2] was 20 µM [rising, partial curve, poor fit].
In the case of `COc1ccc(-n2c(CNc3ccc(C)cc3)nnc2SCc2ccccc2)cc1`, the AC50 [2] is reported as 31.6 µM [rising, partial curve].
For `Cc1csc(NC(=O)CSc2ccc(-c3ccc(F)cc3)nn2)n1`, the AC50 [2] was 35.5 µM [falling, single point].
In the case of `CN(C)CCN(C)Cc1ccccc1Sc1cccc2ccccc12`, the AC50 [1] is reported as 15.8 µM [rising, single point] and the AC50 [2] is reported as 17.8 µM [rising, single point].
In the case of `CCOC(=O)C1CCCN(CC(=O)Nc2c(C(=O)OC)[nH]c3ccc(C)cc23)C1` (stereo not given), the AC50 [2] is reported as 35.5 µM [rising, single point].
For `CCCCN(CC(=O)NCc1ccc(Cl)cc1)S(=O)(=O)c1ccc2c(c1)OCCO2`, the AC50 [2] was 12.6 µM [rising, single point].
In the case of `Cc1c(NC(=O)Cc2noc3ccccc23)cccc1[N+](=O)[O-]`, the AC50 [1] is reported as 0.0891 µM [rising, full curve, poor fit].
In the case of `COc1cc(-c2cc(C(=O)Nc3ccc(S(=O)(=O)NCc4ccco4)cc3)c3ccccc3n2)cc(OC)c1OC`, the AC50 [1] is reported as 0.01 µM [falling, full curve, poor fit].
With `O=C(CSc1ccc(-c2ccccn2)nn1)N1CCc2ccccc21` the AC50 [1] was 12.6 µM [rising, single point].
For `Cc1cc(C)cc(Oc2nc3c(C)cccn3c(=O)c2/C=C(\C#N)C(=O)NC2CCS(=O)(=O)C2)c1` (stereo not given), the AC50 [1] was 6.31 µM [falling, partial curve] and the AC50 [2] was 35.5 µM [falling, single point].
In the case of `Cc1ccc2nc(C)cc(Cl)c2c1`, the AC50 [1] is reported as 0.0501 µM [falling, full curve, poor fit] and the AC50 [2] is reported as 2.82 µM [falling, full curve, poor fit].
In the case of `COC(=O)N/N=C/c1cc(Cl)cc(Cl)c1OCc1ccccc1F`, the AC50 [1] is reported as 15.8 µM [rising, single point].
For `C=CCn1c(C(CC)CC(C)(C)O)n[nH]c1=S` (stereo not given), the AC50 [1] was 0.0224 µM [rising, full curve, poor fit].
For `CCOC(=O)c1cnc2ccccc2c1NCCO`, the AC50 [1] was 0.0398 µM [rising, full curve].
With `Cc1sc(NC(=O)c2cccnc2)nc1-c1ccccc1` the AC50 [2] was 2.51 µM [falling, partial curve].
For `NC(=O)c1cc(N)ccc1N1CCCCC1`, the AC50 [1] was 1 µM [rising, full curve, poor fit].
With `O=C(CCC(=O)Nc1cccc(Cl)c1)N/N=C/c1cc([N+](=O)[O-])ccc1O` the AC50 [1] was 1.78 µM [falling, full curve] and the AC50 [2] was 0.398 µM [falling, partial curve, poor fit].
With `CCc1cc2c(=O)c(-c3nc4ccccc4n3C)c(C(C)C)oc2c(CN2CCN(C)CC2)c1O` the AC50 [2] was 31.6 µM [rising, single point].
With `COc1ccc(C(=O)N2CCCC(c3nc(-c4cccs4)no3)C2)cc1` (stereo not given) the AC50 [2] was 14.1 µM [rising, single point].
With `O=C1c2cnc3ncnn3c2CC2c3ccccc3CCN12` (stereo not given) the AC50 [1] was 3.55 µM [rising, partial curve] and the AC50 [2] was 2 µM [rising, full curve, poor fit].
In the case of `Cc1ccc(-c2csc(NC(=O)c3cccs3)n2)cc1`, the AC50 [2] is reported as 14.1 µM [rising, single point].
For `Cc1cc(N2CCCCCC2)nc(-c2ccccc2O)n1`, the AC50 [1] was 35.5 µM [rising, single point] and the AC50 [2] was 35.5 µM [rising, single point].
With `O=c1c2ccccc2nc(SCc2nc3ccccc3s2)n1Cc1ccco1` the AC50 [2] was 4.47 µM [rising, full curve].
For `CC1CCCCN1C(=O)c1cc(-c2ccc(Cl)c(Cl)c2)on1` (stereo not given), the AC50 [2] was 12.6 µM [rising, partial curve].
For `Cn1c(SCC(=O)N2CCCc3ccccc32)nc2cccnc21`, the AC50 [2] was 17.8 µM [rising, single point].
For `COc1ccc(C2C=C(c3ccc(C)cc3)Nc3c(C(=O)Nc4ccccc4)cnn32)cc1` (stereo not given), the AC50 [2] was 15.8 µM [rising, single point].
In the case of `O=c1c2ccccc2nc(/C=C/c2ccc([N+](=O)[O-])cc2)n1CCCO`, the AC50 [2] is reported as 35.5 µM [rising, single point].
For `CCOC(=O)N1CCN(C(=O)c2ccc3c(=O)n(Cc4ccccc4OC)c(=S)[nH]c3c2)CC1`, the AC50 [1] was 17.8 µM [rising, single point] and the AC50 [2] was 25.1 µM [rising, single point].
For `CCOC(=O)Cn1c(=O)c2c(nc(N3CCCCC3)n2Cc2ccccc2)n(C)c1=O`, the AC50 [2] was 14.1 µM [rising, single point].

Reference: PubChem BioAssay AID1487 (National Center for Advancing Translational Sciences (NCATS), 2009)
